Here are results for two molecules from publication PMC12373733.

By UniProt entry, the sequences of proteins in these tests, tags left out.
UniProt O14980: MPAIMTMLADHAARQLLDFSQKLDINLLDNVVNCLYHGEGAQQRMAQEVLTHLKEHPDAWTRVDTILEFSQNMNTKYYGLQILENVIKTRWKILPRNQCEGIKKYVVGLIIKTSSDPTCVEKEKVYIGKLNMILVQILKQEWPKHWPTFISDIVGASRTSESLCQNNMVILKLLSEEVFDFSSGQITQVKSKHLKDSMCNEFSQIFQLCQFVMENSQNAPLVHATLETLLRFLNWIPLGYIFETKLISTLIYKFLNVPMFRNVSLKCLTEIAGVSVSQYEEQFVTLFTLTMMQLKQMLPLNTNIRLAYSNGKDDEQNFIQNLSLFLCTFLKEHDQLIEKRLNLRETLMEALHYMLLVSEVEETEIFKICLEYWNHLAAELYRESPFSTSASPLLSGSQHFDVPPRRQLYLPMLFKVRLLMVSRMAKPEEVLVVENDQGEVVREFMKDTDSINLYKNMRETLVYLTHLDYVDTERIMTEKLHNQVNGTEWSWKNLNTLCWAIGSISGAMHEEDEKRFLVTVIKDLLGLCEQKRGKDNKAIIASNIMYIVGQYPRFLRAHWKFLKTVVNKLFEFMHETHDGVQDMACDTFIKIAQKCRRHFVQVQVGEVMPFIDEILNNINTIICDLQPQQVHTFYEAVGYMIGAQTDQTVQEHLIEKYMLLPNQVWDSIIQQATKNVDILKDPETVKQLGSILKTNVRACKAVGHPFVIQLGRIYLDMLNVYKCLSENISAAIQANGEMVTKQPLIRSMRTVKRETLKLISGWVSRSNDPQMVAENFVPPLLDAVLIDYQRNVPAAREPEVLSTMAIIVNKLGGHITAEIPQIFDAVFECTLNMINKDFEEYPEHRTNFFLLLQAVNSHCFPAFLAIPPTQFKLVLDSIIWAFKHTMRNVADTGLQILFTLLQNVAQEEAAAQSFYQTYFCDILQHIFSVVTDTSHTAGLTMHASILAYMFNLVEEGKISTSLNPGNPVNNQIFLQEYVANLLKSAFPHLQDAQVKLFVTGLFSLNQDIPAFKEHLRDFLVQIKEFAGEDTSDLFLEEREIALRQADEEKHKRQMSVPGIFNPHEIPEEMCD

For assay [1], the target named is T1, Lipin1 (human (endogenous in NCI-H929)) (UniProt Q14693).
T1 sequence: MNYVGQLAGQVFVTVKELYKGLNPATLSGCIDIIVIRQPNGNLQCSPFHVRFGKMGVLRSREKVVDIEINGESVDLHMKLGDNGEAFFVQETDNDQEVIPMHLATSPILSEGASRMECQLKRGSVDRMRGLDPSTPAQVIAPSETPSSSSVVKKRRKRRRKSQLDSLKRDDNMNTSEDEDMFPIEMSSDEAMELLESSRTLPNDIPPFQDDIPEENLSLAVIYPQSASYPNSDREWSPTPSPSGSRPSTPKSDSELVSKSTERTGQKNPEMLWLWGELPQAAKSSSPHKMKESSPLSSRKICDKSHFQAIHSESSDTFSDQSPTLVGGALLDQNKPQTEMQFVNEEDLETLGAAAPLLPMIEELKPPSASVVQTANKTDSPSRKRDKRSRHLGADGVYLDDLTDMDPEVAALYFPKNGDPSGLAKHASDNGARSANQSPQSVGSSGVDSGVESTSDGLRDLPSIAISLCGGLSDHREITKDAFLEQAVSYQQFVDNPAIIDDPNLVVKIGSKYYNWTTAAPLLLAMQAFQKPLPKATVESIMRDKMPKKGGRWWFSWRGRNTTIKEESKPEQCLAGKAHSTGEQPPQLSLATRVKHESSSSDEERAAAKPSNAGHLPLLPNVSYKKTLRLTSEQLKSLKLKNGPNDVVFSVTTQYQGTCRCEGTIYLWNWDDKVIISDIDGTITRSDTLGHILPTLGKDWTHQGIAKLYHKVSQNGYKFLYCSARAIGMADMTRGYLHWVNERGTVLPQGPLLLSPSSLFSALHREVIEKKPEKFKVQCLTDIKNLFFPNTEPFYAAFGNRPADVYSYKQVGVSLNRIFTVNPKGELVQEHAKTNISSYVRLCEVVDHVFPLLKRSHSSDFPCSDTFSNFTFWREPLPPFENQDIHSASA
As to the kind of experiment: co-IP; anti-Lipin1 antibody, lysates of NCI-H929 cells with or without XPO1 knockdown; addition of Ran-GTP not stated; Western blot. For orientation: In western blotting, separated proteins are transferred to a membrane and probed.

The target of assay [2] is T1, Lipin1 (human (endogenous in NCI-H929)). In words: co-IP; NCI-H929 cell lysates, anti-XPO1 or anti-Lipin1 antibody, Protein A/G agarose beads, 4 °C overnight; each reaction supplemented with 5 μM Ran-GTP (Ran (Q69L) mutant); Western blot.
Assay [3] concerns the target Exportin-1 (XPO1) (human (endogenous in NCI-H929)) (UniProt O14980). In words: co-IP; NCI-H929 lysates incubated with anti-XPO1 antibody in the absence of Ran-GTP; Western blot of Lipin1.
The target is the same in assay [4]. In words: co-IP; NCI-H929 cell lysates, anti-XPO1 or anti-Lipin1 antibody, Protein A/G agarose beads, 4 °C overnight; each reaction supplemented with 5 μM Ran-GTP (Ran (Q69L) mutant); Western blot.

Results are given in words; binding and its absence hold for the method and conditions named. Binding seen in cells or lysates may run through a third protein. Some results given as binding are weak or reduced against the parent protein; the word gives no strength.

In the case of “Exportin-1 (XPO1) (from UniProt O14980 1-1071)”, the binding entry in assay [1] and in assay [2] was “binds” throughout.

B1: Lipin1 (protein, UniProt Q14693 1-890)
chain: T1 sequence
As to B1, the binding result in assay [3] and in assay [4] was “binds” each time.
